Data taken from patent publication US20100210564A1, “DRUG OR FOOD CONTAINING A PEPTIDE” (Kyoto University, priority 2009, published 2010).
For at least one compound, name, drawing or mass did not settle the structure.

Tested on: mice
Assay: Elevated plus-maze test, YL in combination with antagonists for various receptors
Assay type: in vivo, mouse
Conditions: in words
Description: The elevated plus-maze (EPM) consisted of two open arms (25×5 cm) and two closed arms (25×5×15 cm), which were joined to a central platform 50 cm high above the floor (see FIG. 1). Because the closed arms were surrounded by fences, a mouse could safely walk in the closed arms irrespective of their elevated position. On the other hand, because the open arms were not surrounded by fences, a mouse walking along the open arms would feel anxious that it might fall down from the elevated position. Therefore, the more time the mouse spent in the open arms, or the greater the number of entries to the open arms, the less anxious the mouse was feeling; thus, the anxiolytic activity was determined based on these indices.
A mouse was placed on a portion of the central platform facing one of the open arms, and the test was started. During a test time of 5 minutes, the cumulative time spent in the open arms (abbr.: time in open arms), the number of visits to the open arms (abbr.: visit to open arms), and the total number of visits to any of the arms (abbr.: total visits) were recorded. The percentage of the time spent in the open arms and the percentage of the number of visits to the open arms were calculated as indices of anxiety.

Structure (SMILES): CN1CCc2cc(Cl)c(O)cc2[C@@H](c2ccccc2)C1 [SCH23390]
- effect of the antagonist/inhibitor on the anxiolytic effects of the peptides of the invention: blocked
